No constants are given. Whether binding was seen depends on the method and setting. A result given as binding can be weak or reduced; the word gives no strength. For part of these data: In cells and extracts the contact can be indirect.
Legend:
[1] = target: E. coli FimC A106C, His-tagged (E. coli) (UniProt P31697); assay: cross-linking; engineered disulfide bond between FimC A106C-his and FimG S138C (FimCGdb); SI Appendix, Fig. S3
[2] = target: K. pneumoniae TOP52 FimH D54N (Klebsiella pneumoniae); assay: in vitro donor strand exchange, product purified by cation exchange; FimCGdb and FimChisH mixed at a 3:1 molar ratio in 20 mM MES (pH 5.6) at 30 °C for 16 h; FimCGdbH purified on a cation (S) exchange column; FimH entered the reaction bound to FimChis; both purified
[3] = target: K. pneumoniae TOP52 FimH T74P (Klebsiella pneumoniae); assay: as above

Measured: binding

B1: E. coli UTI89 FimG S138C (protein, UniProt P08190 24-167)
chain: ADVTITVNGKVVAKPCTVSTTNATVDLGDLYSFSLMSAGAASAWHDVALELTNCPVGTSRVTASFSGAADSTGYYKNQGTAQNIQLELQDDSGNTLNTGATKTVQVDDSSQSAHFPLQVRALTVNGGATQGTIQAVICITYTYS
binds: all assays above
